Laboratory results as given in PubChem BioAssay AID493014 (National Center for Advancing Translational Sciences (NCATS), 2011).
The whole screen tested about 340,000 compounds, of which about 170 (0.05%) were called active. Inconclusive results, whose numbers are uncertain, are shown with a selection of clear calls. Calls follow the shape of the dose curve; as a rule, active = well fitted inhibition curve with a large enough effect in the signal ratio, with a control signal flat (not every such curve was filed as active); inconclusive = small, poorly fitted or top-dose-only effect, or effect the other way, or a change in a side signal; inactive = flat fitted curve, though single readings scatter; the % refers to the signal ratio. Potencies beside an inconclusive call are fits to weak or partial responses and may not hold up.

experiment: qHTS Assay to Find Inhibitors of Chronic Active B-Cell Receptor Signaling; details: ABC-DLBCL IkBa-CBG/CBR reporter, luminescence ratio (green luciferase fused to IkBa over red control in TMD8 lymphoma cells), 4 h; activity change, negative = inhibition: at 46.1 µM (top of the series);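 as to activity change, negative = inhibition: plate controls were basal doxycycline-induced cells for no effect and cells given 10 µM MG132 for full effect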
Outline: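 Concentration-response series (up to 46 uM) were applied to TMD8 dual-reporter cells for 4 h at 37C with doxycycline. Green/red ratio, after filter-overlap correction, defined %Activity; red signal alone was normalised to basal cells and zero luminescence.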
Potency is read from the fitted curve at half-maximal effect.

SMILES | activity change, negative = inhibition | Potency
CC(C)Cn1c(N)c(C(=O)COC(=O)c2cc(C(F)(F)F)nc3c(C(F)(F)F)cccc23)c(=O)n(C)c1=O | inconclusive: 8.53% | 
COc1ccccc1CN(C)C(=O)COC(=O)c1cc(C)oc1C | inactive | 
CCCCC(=O)Nc1ccc(Br)cc1C(=O)O | inconclusive: 8.76% | 
O=C1CC(Sc2ncccn2)C(=O)N1c1ccccc1C(F)(F)F (configuration not stated) |  | inconclusive: 29.1 µM [falling, single point]
COc1ccc2c(c1)[N+](C)(C)C(C)(C)C=C2C |  | inconclusive: 6.31 µM [falling, single point]
CC(Oc1ccccc1)C(=O)OCC(=O)NC(=O)NC1CCCCC1 (configuration not stated) | inconclusive: 0.297% | 
CC1=NOC(=O)/C1=C/c1ccc(O)c(Br)c1 | inactive | 
C/C(=N\NC(=O)c1ccc(N2CCCC2=O)cc1)c1ccncc1 | inconclusive: 7.68% | 
COc1ccc(-c2nc(C#N)c(N3CCN(c4ccccc4)CC3)o2)cc1 | inconclusive: 5.94% | 
Clc1ccccc1OCc1nnc(-c2ccccc2Br)o1 | inconclusive: -3.71% | 
Cc1ccc(C(c2nnnn2C2CCCCC2)N(C)C2CCCCC2)cc1 (configuration not stated) | inactive | 
Cc1cccc(N2CCN(C(=O)c3cc(=O)[nH]c4ccccc34)CC2)c1C | inactive | 
Cc1ccc(-c2cc(-c3ccccc3Cl)c(C#N)c(N)n2)o1 | inactive | 
CNC(=O)CC1C(=O)N(c2ccc(F)cc2)C(=S)N1NC(=O)c1ccc(Br)cc1 (configuration not stated) |  | inconclusive: 35.5 µM [rising, single point]
COc1ccc(-c2cc(C(F)(F)F)c(C#N)c(=O)[nH]2)cc1 | inactive | 
COc1cccc(CNC(=O)CNC(=S)N(Cc2ccccc2)Cc2ccccc2F)c1 | inconclusive: -4.77% | 
O=C(c1cnn(-c2ccccc2)c1)c1ccccc1O |  | inconclusive: 6.51 µM [falling, single point]
Cc1nnc(SCC(=O)N2CCN(c3ccccc3F)CC2)n1C1CC1 | inconclusive: 10.4% | 
C/C(=N\NC(=S)NCc1ccccc1)c1ccc(Br)cc1 | inconclusive: -4.21% | 
Cc1ccc(CN2CCN(Cc3ccc4cc(F)ccc4n3)CC2CCO)o1 (configuration not stated) | inconclusive: -9.57% | 
CC(/C=C/c1ccc2c(c1)OCO2)=N/NC(=O)c1cccnc1 |  | inconclusive: 20.6 µM [falling, single point]

SMILES | activity change, negative = inhibition | Potency
CCOc1cc(-c2nc(-c3ccccc3OC)no2)cc(OCC)c1OCC | inconclusive: 3.15% | 
Cc1ccc(NC(=O)c2oc3ccc(S(=O)(=O)N4CCC5(CC4)OCCO5)cc3c2C)cc1Cl |  | inconclusive: 3.16 µM [falling, partial curve, poor fit]
COc1ccccc1NS(=O)(=O)c1cccc(C(=O)NCC(c2ccco2)N2CCCCC2)c1 (configuration not stated) | inactive | 
COc1ccccc1CCC(=O)OCC(=O)Nc1ccc(S(N)(=O)=O)cc1 | inconclusive: 1.26% | 
Cc1ccc(OCCSc2nc(N)cc(N)n2)cc1 | inconclusive: 0.123% | 
Cc1ccc(Nc2nc3nonc3[nH]c2=O)cc1 | inactive | 
CC(C)(C)c1ccc(NC(=O)c2c(F)cccc2Cl)cc1 |  | inconclusive: 12.6 µM [falling, partial curve]
CCOC(=O)C1CCCN(C(=O)c2ccccc2Oc2ccccc2)C1 (configuration not stated) | inconclusive: 3.48% | 
Cc1ccc(OCCCC(=O)Nc2ccc3c(c2)OCCO3)cc1 | inconclusive: 5.56% | 
COc1ccccc1NC(=O)Cc1nnc(SCC(=O)Nc2ccc(F)cc2F)n1C | inconclusive: -21.8% | 
CCc1cc(/C(Cc2ccc3ccccc3n2)=N\O)c(O)cc1O | inconclusive: -21.3% | 
N#Cc1ccc(OCC(=O)Nc2cccc(S(=O)(=O)NC3=NCCCCC3)c2)cc1 | inactive | 
O=C(O)CN1C(=O)c2cccc3c(Br)ccc1c23 | inactive | 
COc1cccc(C2CC(c3ccccc3)=NN2S(=O)(=O)c2ccc(C)cc2)c1OC (configuration not stated) | inconclusive: 28.7% | 
CN1CCC(=O)N([C@H](CSc2ccccc2)Cc2ccccc2)CC1 |  | inconclusive: 0.398 µM [falling, full curve]
CCOC(=O)C1=C(C)n2c(s/c(=C3\C(=O)Nc4ccccc43)c2=O)=NC1c1ccc(OC)cc1 (configuration not stated) | inconclusive: -20.5% | 
Fc1ccccc1CSc1nnc(-c2cccnc2)o1 | inactive | 
CC(C(=O)NC1CCCC1)N(C(=O)Cn1nnc(-c2ccc(F)cc2)n1)c1ccccc1F (configuration not stated) |  | inconclusive: 20 µM [falling, partial curve, poor fit]
CC(=O)Nc1sc2c(c1C(c1ccccc1)N1CCOCC1)CCCC2 (configuration not stated) | inconclusive: 10.4% | 
O=[N+]([O-])c1ccc(NNC(=S)Nc2ccc(F)cc2)cc1 | inactive | 
O=C(CSc1nnc(-c2ccccc2)o1)c1ccc2c(c1)OCCO2 | inconclusive: 2.29% | 

Reformatted: entries from further up.
COc1ccc(-c2nc(C#N)c(N3CCN(c4ccccc4)CC3)o2)cc1
  activity change, negative = inhibition: inconclusive: 5.94%
Cc1cccc(N2CCN(C(=O)c3cc(=O)[nH]c4ccccc34)CC2)c1C
  activity change, negative = inhibition: inactive
Cc1nnc(SCC(=O)N2CCN(c3ccccc3F)CC2)n1C1CC1
  activity change, negative = inhibition: inconclusive: 10.4%
CCOC(=O)C1=C(C)n2c(s/c(=C3\C(=O)Nc4ccccc43)c2=O)=NC1c1ccc(OC)cc1 (configuration not stated)
  activity change, negative = inhibition: inconclusive: -20.5%
